# Source: PubChem BioAssay AID1487 (National Center for Advancing Translational Sciences (NCATS), 2009)
# The list shows a part of the results. These are further read-outs of the screen, such as a control signal, another cell line or another target. No call is given for them. Compounds called inactive in the main read-out are mostly missing here. Words in brackets tell the shape of the fitted curve; partial curves, single points and poor fits give uncertain potencies.
# Assay: qHTS Assay for Modulators of Lamin A Splicing
# Details: HeLa LMNA splicing GFP/RFP minigene ratio, 48 h
# In short: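 S3 HeLa stable clones carrying a lamin A-EGFP splicing minigene plus DsRed2 were seeded at 600 cells/well in Opti-MEM with 2% FBS, pin-dosed and incubated 48 h at 37°C. Acumen cytometry (488 nm) gave the GFP/RFP total-intensity ratio.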
# [1] = measured here: GFP splicing reporter channel
# [2] = measured here: RFP viability control channel
SMILES,AC50 [1],AC50 [2]
Cc1ccc(S(=O)(=O)N2CCC(=O)N(CCOC(=O)Nc3ccc(F)cc3)CC2)cc1,"8.91 µM [rising, partial curve, poor fit]",
CCCCNC(=O)Cc1c(OC)ccc2cc(Br)ccc12,,"2.51 µM [rising, full curve, poor fit]"
Cc1cc(C(=O)COc2cc(F)ccc2[N+](=O)[O-])c(C)n1C1CC1,"0.112 µM [falling, full curve, poor fit]",
CN1c2ccccc2C(C)(C)C12C=Cc1cc(O)ccc1O2 (centres undefined),"35.5 µM [falling, single point]",
COc1cc([N+](=O)[O-])ccc1NC(=O)Nc1nc2c(s1)CCCC2,"35.5 µM [rising, single point]",
CC[N+](CC)(CC)CC(=O)Nc1c(C)cccc1C,,"8.91 µM [rising, partial curve, poor fit]"
CC[C@H](C)[C@H]1O[C@]2(CC[C@@H]1C)C[C@@H]1C[C@@H](C/C=C(\C)[C@H](O[C@@H]3C[C@H](OC)[C@H](O[C@@H]4C[C@H](OC)[C@@H](O)[C@H](C)O4)[C@H](C)O3)[C@@H](C)/C=C/C=C3\CO[C@@H]4[C@H](O)C(C)=C[C@@H](C(=O)O1)[C@]34O)O2,"2.24 µM [falling, partial curve, poor fit]","2.51 µM [rising, partial curve]"
CCCCCCCCC/C(=N\O)c1ccccn1,"14.1 µM [falling, single point]","0.631 µM [falling, partial curve]"
C=C(C)Cn1c(SCC(=O)NCc2ccco2)nc2sc3c(c2c1=O)CCC3,,"0.562 µM [rising, full curve, poor fit]"
Fc1ccc(N=C2NN=C(c3cc(F)ccc3F)CS2)cc1,,"17.8 µM [rising, partial curve]"
CCOC(=O)C1CCCN(C(=O)c2ccc3c(c2)sc2nc(-c4ccc(C)cc4C)cn23)C1 (centres undefined),"5.62 µM [rising, full curve]","7.08 µM [rising, partial curve]"
O=C(CCCOc1ccccc1)NCCc1nc2ccccc2[nH]1,,"1.41 µM [falling, full curve, poor fit]"
O=C(NCCCNc1ccc([N+](=O)[O-])cc1)C(F)(F)F,"31.6 µM [rising, single point]",
O=C(c1cccc(Cl)c1)N1c2ncnn2C2(CCCCC2)[C@@H]2CCCC[C@@H]21,"25.1 µM [falling, single point]","5.01 µM [falling, partial curve, poor fit]"
Nc1nnc(N2CCc3ccccc32)s1,"0.631 µM [falling, partial curve, poor fit]",
Cc1ccc(CCNC(=O)c2nnn(-c3cccc(C)c3)c2N)cc1,,"14.1 µM [rising, partial curve, poor fit]"
Cc1ccc(-c2csc3ncnc(-n4nnc5ccccc54)c23)cc1C,"12.6 µM [rising, partial curve]","22.4 µM [rising, partial curve]"
CS(=O)(=O)N1CCN(c2ccc(Cl)cc2[N+](=O)[O-])CC1,,"39.8 µM [rising, partial curve, poor fit]"

SMILES,AC50 [1],AC50 [2]
c1ccc(CCc2nc3ccccc3[nH]2)cc1,"0.282 µM [rising, full curve, poor fit]",
Cc1ccc(S(=O)(=O)Nc2ccccc2CNc2ccc(Br)cn2)cc1,"14.1 µM [rising, partial curve]",
Cc1cc(/C=N/NC(=O)CC#N)c(C)n1-c1ccc([N+](=O)[O-])cc1,"0.0562 µM [falling, full curve, poor fit]",
COCCNC(=O)c1cc(OC)c(OC)cc1[N+](=O)[O-],"10 µM [rising, partial curve, poor fit]",
COCc1cc(C)nc2sc3c(=O)n(-c4ccccc4C(F)(F)F)nnc3c12,,"0.141 µM [falling, full curve, poor fit]"
CCCN1C/C(=C/c2ccc3c(c2)OCO3)C(=O)/C(=C/c2ccc3c(c2)OCO3)C1,,"10 µM [rising, partial curve]"
Cc1c(C(=O)N2CCCCC2)oc2ccc(S(=O)(=O)N3CC(C)CC(C)C3)cc12 (centres undefined),"2 µM [rising, partial curve]","3.16 µM [rising, full curve]"
Oc1ccc2ccccc2c1C=Nc1ccccc1-c1nc2ccccc2[nH]1,,"28.2 µM [rising, single point]"
O=C(CCc1ccccc1O)N/N=C/c1ccc(Sc2cccc3cccnc23)o1,"35.5 µM [rising, single point]","35.5 µM [rising, single point]"
CCOC(=O)c1c(S(=O)(=O)NCC(=O)NCc2ccccc2Cl)c(C)n(C)c1C,"5.62 µM [rising, single point]",
CCOC(=O)CC1COc2ccccc2N1C(=O)c1ccc(F)cc1 (centres undefined),"2.51 µM [rising, partial curve, poor fit]",
CCOC(=O)c1sc(=S)n(-c2cc(F)ccc2F)c1N,"3.16 µM [falling, single point]",
O=C(Nc1ccc2c(c1)CCC2)c1cnn2c1NC(c1ccco1)CC2C(F)(F)F (centres undefined),,"5.62 µM [rising, single point]"
CSc1nc2nc(-c3cccc(C(F)(F)F)c3)ccn2n1,,"0.00282 µM [falling, full curve, poor fit]"
O=C(N/N=C\C=C\c1ccc2c(c1)OCO2)c1cccnc1,,"10 µM [rising, partial curve, poor fit]"
Cc1sc2nc(CN(Cc3cccs3)C(=O)C3CC3)[nH]c(=O)c2c1C,,"20 µM [rising, single point]"
CCCc1ccc(Oc2cn[nH]c2-c2ccc(O)c(C)c2O)cc1,,"25.1 µM [rising, partial curve]"
O=C1C(C=Nc2ccccc2O)=C(O)c2ccccc21,"14.1 µM [rising, single point]","31.6 µM [rising, single point]"

# Of the compounds above, 2 have bromine:
SMILES,AC50 [1],AC50 [2]
CCCCNC(=O)Cc1c(OC)ccc2cc(Br)ccc12,,"2.51 µM [rising, full curve, poor fit]"
Cc1ccc(S(=O)(=O)Nc2ccccc2CNc2ccc(Br)cn2)cc1,"14.1 µM [rising, partial curve]",
